Some entries share one result that the patent states for a list of compounds.
Assays:
[1] = test system: Oxaliplatin treatment surviving HT29 human colon cancer cells; test: Factor of resistance, chemotherapy surviving tumor cells; assay type: cell-based; conditions: HT29 cells surviving 10 μM Oxaliplatin versus untreated HT29; 72 h
[2] = test system: normal human skin fibroblasts; test: Factor of resistance, normal fibroblasts versus HT29; assay type: cell-based; conditions: normal human fibroblasts versus untreated HT29; 72 h

Compound	factor of resistance (IC50 in surviving cells/IC50 in untreated control cells) [1]	factor of resistance (IC50 normal human fibroblasts/IC50 unselected HT29 cells) [2]
COc1cccc2c1C(=O)c1c(O)c3c(c(O)c1C2=O)C[C@@](O)(C(=O)CO)C[C@@H]3O[C@H]1C[C@H](N)[C@H](O)[C@H](C)O1 [Doxorubicin]	> 10	at least 100
CC[C@]1(O)C[C@H]2CN(CCc3c([nH]c4ccccc34)[C@@](C(=O)OC)(c3cc4c(cc3OC)N(C=O)[C@H]3[C@@](O)(C(=O)OC)[C@H](OC(C)=O)[C@]5(CC)C=CCN6CC[C@]43[C@@H]65)C2)C1 [Vincristin]	> 10	at least 100

Reference: patent US10953099B2, “Compositions comprising a metal source, dithiocarbamate and cyclodextrin” (priority 2016, dated 2021)
